Source: the supplement of paper PMC10849652
The other results are listed elsewhere or left out. Residues, ends and D or L forms follow the SMILES beside them. *: point of attachment. Cbz = O=C(OCc1ccccc1)*

Sequences of proteins named here, by UniProt entry; tags and fusion partners are left off. A change or cut given only in a name is not applied to a line headed by its entry.
UniProt Q9C0B0: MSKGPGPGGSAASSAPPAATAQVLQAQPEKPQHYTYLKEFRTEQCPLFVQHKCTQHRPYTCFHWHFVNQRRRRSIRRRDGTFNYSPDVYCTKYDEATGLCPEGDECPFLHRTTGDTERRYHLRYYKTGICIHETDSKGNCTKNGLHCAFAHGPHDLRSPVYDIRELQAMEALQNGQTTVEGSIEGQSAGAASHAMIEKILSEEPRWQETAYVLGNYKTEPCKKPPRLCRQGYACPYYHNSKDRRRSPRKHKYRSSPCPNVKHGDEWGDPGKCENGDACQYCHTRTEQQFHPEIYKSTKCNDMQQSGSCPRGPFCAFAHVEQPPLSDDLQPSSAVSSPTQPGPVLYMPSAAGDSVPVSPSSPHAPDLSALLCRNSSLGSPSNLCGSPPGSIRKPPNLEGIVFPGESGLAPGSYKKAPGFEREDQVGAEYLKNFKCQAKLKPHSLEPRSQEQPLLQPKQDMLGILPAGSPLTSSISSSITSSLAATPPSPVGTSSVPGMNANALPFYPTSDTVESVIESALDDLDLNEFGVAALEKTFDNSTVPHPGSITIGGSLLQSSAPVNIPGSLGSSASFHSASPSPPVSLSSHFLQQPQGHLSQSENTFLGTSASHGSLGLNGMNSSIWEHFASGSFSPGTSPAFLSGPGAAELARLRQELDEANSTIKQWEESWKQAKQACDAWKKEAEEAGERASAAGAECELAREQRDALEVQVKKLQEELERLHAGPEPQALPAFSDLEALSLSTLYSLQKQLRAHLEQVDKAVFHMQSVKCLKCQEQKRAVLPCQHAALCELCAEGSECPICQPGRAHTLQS
UniProt Q96LJ8: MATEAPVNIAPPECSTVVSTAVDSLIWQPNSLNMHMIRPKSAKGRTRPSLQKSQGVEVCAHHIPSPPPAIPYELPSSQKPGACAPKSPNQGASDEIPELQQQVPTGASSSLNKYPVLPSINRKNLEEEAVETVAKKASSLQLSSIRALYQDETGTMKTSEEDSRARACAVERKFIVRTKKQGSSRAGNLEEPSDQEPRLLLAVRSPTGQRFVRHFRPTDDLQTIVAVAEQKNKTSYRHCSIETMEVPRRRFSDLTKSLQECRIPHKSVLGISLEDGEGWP
UniProt O00124: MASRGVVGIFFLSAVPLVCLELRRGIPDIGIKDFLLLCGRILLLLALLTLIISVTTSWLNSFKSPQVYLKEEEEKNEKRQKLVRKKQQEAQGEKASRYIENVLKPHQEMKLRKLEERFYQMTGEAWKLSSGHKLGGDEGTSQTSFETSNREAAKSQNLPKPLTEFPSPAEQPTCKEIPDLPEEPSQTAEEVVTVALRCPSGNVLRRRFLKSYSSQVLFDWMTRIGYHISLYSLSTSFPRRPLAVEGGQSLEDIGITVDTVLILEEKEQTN
UniProt Q15836, whole entry, looked up: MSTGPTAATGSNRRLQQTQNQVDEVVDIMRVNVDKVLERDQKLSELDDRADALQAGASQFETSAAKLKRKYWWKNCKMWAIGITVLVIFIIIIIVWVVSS
UniProt Q6NVU6: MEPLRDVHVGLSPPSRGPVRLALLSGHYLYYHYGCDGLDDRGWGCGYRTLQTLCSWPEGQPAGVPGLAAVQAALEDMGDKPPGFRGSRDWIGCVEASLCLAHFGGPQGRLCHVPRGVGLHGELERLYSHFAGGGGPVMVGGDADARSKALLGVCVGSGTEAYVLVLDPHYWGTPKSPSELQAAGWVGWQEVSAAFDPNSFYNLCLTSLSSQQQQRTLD
UniProt Q9BRU9: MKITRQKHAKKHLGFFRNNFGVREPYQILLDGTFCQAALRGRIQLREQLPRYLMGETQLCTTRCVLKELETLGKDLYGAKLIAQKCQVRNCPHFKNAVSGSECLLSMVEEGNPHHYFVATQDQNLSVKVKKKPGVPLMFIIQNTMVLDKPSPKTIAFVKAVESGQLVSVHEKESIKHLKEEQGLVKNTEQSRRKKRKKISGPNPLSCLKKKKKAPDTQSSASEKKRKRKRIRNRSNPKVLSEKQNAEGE
UniProt Q6ZT12: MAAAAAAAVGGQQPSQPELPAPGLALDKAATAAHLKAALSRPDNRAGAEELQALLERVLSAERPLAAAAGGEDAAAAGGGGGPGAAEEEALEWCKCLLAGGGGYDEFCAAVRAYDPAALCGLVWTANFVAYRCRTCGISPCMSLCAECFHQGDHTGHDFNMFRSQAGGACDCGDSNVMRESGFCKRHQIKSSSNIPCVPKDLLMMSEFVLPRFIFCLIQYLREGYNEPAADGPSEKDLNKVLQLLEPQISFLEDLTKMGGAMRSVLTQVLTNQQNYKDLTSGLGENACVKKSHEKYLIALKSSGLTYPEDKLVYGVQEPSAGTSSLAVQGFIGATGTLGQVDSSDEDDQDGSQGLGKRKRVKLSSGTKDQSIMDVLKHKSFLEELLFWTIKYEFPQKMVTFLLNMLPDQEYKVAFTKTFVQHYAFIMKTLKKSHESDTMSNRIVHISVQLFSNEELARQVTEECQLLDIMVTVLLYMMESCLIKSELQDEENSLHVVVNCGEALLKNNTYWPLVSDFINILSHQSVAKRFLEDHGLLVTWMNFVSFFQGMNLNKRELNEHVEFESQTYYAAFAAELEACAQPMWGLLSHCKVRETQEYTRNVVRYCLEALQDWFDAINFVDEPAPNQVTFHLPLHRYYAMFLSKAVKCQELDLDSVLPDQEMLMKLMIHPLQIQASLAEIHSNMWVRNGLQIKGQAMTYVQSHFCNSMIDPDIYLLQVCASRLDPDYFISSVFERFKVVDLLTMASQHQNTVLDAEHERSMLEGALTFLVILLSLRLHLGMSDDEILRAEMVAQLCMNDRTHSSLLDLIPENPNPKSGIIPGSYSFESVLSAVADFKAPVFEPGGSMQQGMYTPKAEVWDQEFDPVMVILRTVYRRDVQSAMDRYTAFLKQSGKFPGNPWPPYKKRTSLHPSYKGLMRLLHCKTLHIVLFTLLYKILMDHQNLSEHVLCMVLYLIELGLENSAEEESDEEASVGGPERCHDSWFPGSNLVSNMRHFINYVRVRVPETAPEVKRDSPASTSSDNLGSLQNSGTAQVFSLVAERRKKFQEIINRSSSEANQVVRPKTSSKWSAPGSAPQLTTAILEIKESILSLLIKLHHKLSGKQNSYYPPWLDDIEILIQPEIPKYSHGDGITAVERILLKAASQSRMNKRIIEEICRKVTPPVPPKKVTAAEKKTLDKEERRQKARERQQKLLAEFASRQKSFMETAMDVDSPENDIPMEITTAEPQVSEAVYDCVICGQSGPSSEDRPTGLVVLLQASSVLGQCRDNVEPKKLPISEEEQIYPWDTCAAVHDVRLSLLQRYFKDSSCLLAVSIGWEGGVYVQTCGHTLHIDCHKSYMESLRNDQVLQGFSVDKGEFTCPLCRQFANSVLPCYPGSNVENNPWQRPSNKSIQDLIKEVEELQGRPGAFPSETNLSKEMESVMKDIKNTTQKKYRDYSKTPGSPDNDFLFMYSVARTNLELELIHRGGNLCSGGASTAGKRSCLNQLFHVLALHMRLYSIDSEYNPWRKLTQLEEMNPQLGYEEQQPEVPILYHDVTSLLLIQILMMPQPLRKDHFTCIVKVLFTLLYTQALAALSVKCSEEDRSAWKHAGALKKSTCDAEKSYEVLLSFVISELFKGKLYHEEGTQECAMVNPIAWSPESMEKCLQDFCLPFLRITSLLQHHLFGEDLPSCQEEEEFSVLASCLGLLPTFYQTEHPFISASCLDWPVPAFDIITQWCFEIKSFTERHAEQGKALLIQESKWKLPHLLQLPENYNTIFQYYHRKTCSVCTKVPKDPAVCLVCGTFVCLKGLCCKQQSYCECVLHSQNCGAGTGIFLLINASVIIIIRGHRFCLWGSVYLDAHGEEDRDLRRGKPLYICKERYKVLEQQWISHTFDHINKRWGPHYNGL
UniProt Q6PHR2: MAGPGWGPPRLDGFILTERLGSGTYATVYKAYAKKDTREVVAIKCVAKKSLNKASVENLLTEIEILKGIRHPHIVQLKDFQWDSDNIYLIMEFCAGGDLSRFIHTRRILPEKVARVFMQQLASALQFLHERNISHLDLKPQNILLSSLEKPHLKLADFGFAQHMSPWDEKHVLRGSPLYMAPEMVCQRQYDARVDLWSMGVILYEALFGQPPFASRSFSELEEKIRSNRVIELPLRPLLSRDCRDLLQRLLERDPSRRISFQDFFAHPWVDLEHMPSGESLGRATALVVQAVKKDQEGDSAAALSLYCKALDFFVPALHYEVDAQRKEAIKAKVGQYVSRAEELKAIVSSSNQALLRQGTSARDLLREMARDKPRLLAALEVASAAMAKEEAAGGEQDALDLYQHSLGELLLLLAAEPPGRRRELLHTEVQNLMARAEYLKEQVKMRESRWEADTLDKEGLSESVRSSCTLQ
UniProt Q9Y5Z9: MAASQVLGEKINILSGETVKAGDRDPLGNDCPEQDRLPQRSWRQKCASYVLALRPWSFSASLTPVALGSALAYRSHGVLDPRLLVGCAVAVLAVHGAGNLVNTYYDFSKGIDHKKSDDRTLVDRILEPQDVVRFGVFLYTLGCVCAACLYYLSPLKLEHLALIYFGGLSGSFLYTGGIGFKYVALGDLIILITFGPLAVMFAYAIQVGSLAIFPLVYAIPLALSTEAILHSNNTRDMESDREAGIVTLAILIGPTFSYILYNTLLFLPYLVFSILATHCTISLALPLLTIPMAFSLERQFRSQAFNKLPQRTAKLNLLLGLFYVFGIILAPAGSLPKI
UniProt Q8TEY7: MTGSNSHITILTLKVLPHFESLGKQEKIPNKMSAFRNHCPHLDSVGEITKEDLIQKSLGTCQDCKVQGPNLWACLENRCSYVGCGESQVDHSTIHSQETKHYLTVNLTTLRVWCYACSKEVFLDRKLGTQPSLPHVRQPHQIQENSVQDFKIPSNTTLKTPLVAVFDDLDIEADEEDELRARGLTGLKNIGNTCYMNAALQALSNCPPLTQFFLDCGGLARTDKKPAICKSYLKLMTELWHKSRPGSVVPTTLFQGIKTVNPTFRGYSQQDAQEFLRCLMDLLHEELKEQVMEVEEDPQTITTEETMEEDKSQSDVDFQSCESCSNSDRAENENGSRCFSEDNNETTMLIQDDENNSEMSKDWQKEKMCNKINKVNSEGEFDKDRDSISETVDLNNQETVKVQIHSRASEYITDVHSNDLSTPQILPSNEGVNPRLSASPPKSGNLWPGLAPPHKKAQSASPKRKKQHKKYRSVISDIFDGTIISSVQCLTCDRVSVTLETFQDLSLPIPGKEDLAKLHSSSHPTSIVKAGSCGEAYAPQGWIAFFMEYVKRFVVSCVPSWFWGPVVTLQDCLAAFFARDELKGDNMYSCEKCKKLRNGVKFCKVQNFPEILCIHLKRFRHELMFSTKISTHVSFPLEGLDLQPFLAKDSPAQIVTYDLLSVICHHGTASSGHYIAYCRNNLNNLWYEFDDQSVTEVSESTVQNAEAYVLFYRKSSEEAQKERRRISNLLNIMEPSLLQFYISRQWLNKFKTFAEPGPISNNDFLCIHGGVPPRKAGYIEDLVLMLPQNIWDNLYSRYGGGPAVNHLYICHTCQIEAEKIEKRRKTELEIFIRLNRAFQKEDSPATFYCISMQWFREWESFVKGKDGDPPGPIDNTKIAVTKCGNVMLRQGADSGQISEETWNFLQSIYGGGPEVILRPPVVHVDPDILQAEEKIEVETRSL

Assays:
Test in all cases: log2 fold change, soluble protein after heating vs DMSO (PISA); higher = thermal stabilisation; K562 cells, 10 uM, 30 min; active = over 0.2 and 3.5 SD of the protein, either way, in both replicates (recomputed)
[1] = compound: C#Cc1cccc(Nc2ncnc3cc(OCCOC)c(OCCOC)cc23)c1 [erlotinib]
In short: (§1)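 Quantification of soluble protein used TMTpro 16plex LC-MS/MS, with channel sums equalised. Samples were the supernatant after 21,000xg for 90 min of pooled aliquots from K562 cells (2×10^6 cells/mL) treated with 10 μM compound for 30 min, heated for 3 min over 48°C-58°C, and extracted in PBS with 0.5% NP-40 at 4°C. Values, from duplicates, describe thermal stability against control samples on a log2 fold-change scale.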

[2] = compound: C1=CC(=CC=C1C2=NC3=C(N2)C=C(C=C3)C(=O)N)OC4=CC=C(C=C4)Cl
In short: as §1

[3] = compound: C1=CC2=NC=CN=C2C=C1/C=C/3\C(=O)NC(=O)S3
In short: as §1

[4] = compound: C1CCN(C1)C(=O)NC2=CC=CC(=C2)NC3=NC=C(C(=N3)NCCC4=CN=CN4)Br
In short: as §1

[5] = compound: C1CN(CCC1(CC2=CC=C(C=C2)Cl)N)C3=NC=NC4=C3C=CN4
In short: as §1

[6] = compound: C=CC(=O)N1CCC[C@@H](n2nc(-c3ccc(Oc4ccccc4)cc3)c3c(N)ncnc32)C1 [ibrutinib]
In short: as §1

[7] = compound: CC(C)C1=C2N=C(C=C(N2N=C1)NCC3=CC=CC=C3)NCCCCCCN
In short: as §1

[8] = compound: CC1=C(C2=C(C=C1)C(=O)C3=CC=CC=C3N2CCCN)C
In short: as §1

[9] = compound: C/C(=N\NC(=O)C1=CC(=CC=C1)S(=O)(=O)N2CCOCC2)/C3=C(C=CC(=C3)Cl)O
In short: as §1

[10] = compound: C1=CC2=C(C=CC(=C2)/C=C\3/C(=O)NC(=NCC4=CC=CS4)S3)N=C1
In short: as §1

[11] = compound: C1=CC=C2C(=C1)C3=NNC4=CC=CC(=C43)C2=O
In short: as §1

[12] = compound: C1COCCN1CCN2C3=CC=CC=C3N=C2NC(=O)C4=CC(=CC=C4)[N+](=O)[O-] [IRAK-1-4 Inhibitor I]
In short: as §1

[13] = compound: CC(=O)c1cnc2ccc(-c3cc(Cl)c(O)c(Cl)c3)nc2c1N[C@H]1CC[C@H](CN(C)C)CC1
In short: as §1

[14] = compound: CC(C)N(C[C@H]1O[C@@H](n2cnc3c(N)ncnc32)[C@H](O)[C@@H]1O)[C@H]1C[C@@H](CCc2nc3cc(C(C)(C)C)ccc3[nH]2)C1 [pinometostat]
In short: as §1

[15] = compound: CC1=C(C(CC(=O)N1)C2=CC=C(C=C2)C(F)(F)F)C(=O)NC3=C(C=C4C(=C3)C=NN4)F
In short: as §1

[16] = compound: C1=CC(=C(C=C1Cl)C2=NC3=NC=CN=C3C(=N2)NC4=CC=NC=C4)F
In short: as §1

[17] = compound: C1=CC=C(C=C1)C2=NC(=C(N2)C3=CC=NC=C3)C4=CC(=C(C=C4)Cl)O
In short: as §1

[18] = compound: CC(C)(C)Cn1c(N)nc2ccc(-c3[nH]c(C(C)(C)C)nc3-c3ccc(F)cc3)nc21 [ralimetinib]
In short: as §1

[19] = compound: CC(C)(O)CC(=O)NCCn1ccc2ncnc(Nc3ccc(Oc4cccc(C(F)(F)F)c4)c(Cl)c3)c21
In short: as §1

[20] = compound: CC(C)C[C@@H](C=O)NC(=O)[C@H](CC(C)C)NC(=O)[C@H](CC(C)C)NC(=O)OCc1ccccc1
In short: as §1

Measured: log2 fold change

USP54 (UniProt Q70EL1)
inactive: [1] 0.088 | [2] -0.203 | [3] 0.149 | [4] 0.082 | [5] 0.09 | [6] -0.089 | [7] -0.134 | [8] 0.057

UNK (UniProt Q9C0B0)
inactive: [1] -0.055 | [9] -0.002 | [2] 0.02 | [10] -0.014 | [3] -0.013 | [11] -0.008 | [4] -0.1 | [5] -0.03 | [12] -0.058 | [6] -0.003 | [13] -0.065 | [7] 0.007 | [14] 0.02 | [15] -0.032 | [8] 0.102

UBXN10 (UniProt Q96LJ8)
inactive: [1] -0.036 | [16] 0.004 | [2] 0.048 | [3] -0.068 | [17] -0.077 | [4] -0.101 | [5] 0.128 | [12] 0.027 | [6] 0.054 | [18] -0.045 | [19] -0.145 | [7] -0.017 | [20] 0.038 | [14] 0.058 | [8] 0.085

UBXN8 (UniProt O00124)
inactive: [9] 0.056 | [16] 0.147 | [10] 0.141 | [3] -0.41 | [17] -0.149 | [11] -0.036 | [4] 0.167 | [5] -0.019 | [6] 0.077 | [13] 0.039 | [18] 0.211 | [19] 0.138 | [20] -0.227 | [8] 0.259

VAMP3 (UniProt Q15836)
inactive: [1] 0 | [16] -0.02 | [2] -0.034 | [3] -0.005 | [4] -0.063 | [5] -0.234 | [12] -0.048 | [6] 0.01 | [19] 0.035 | [7] 0.153 | [14] -0.145 | [15] -0.016 | [8] 0.139

Random excerpt: 2 entries already listed, in no set order.
VAMP3 (UniProt Q15836)
inactive: [1] 0 | [16] -0.02 | [2] -0.034 | [3] -0.005 | [4] -0.063 | [5] -0.234 | [12] -0.048 | [6] 0.01 | [19] 0.035 | [7] 0.153 | [14] -0.145 | [15] -0.016 | [8] 0.139

UBXN10 (UniProt Q96LJ8)
inactive: [1] -0.036 | [16] 0.004 | [2] 0.048 | [3] -0.068 | [17] -0.077 | [4] -0.101 | [5] 0.128 | [12] 0.027 | [6] 0.054 | [18] -0.045 | [19] -0.145 | [7] -0.017 | [20] 0.038 | [14] 0.058 | [8] 0.085

Remaining list, next part.

USP27X (UniProt A6NNY8)
inactive: [9] 0.183 | [16] -0.068 | [10] -0.089 | [17] -0.139 | [11] -0.211 | [4] 0.005 | [5] -0.058 | [13] 0.057 | [18] 0.092 | [19] -0.125 | [20] 0.063 | [8] 0.035

UFSP1 (UniProt Q6NVU6)
inactive: [1] 0.232 | [2] 0.091 | [7] 0.083

UTP23 (UniProt Q9BRU9)
inactive: [15] 0.153

UBR3 isoform 4 (UniProt Q6ZT12)
inactive: [1] 0.109 | [16] -0.013 | [2] -0.157 | [3] 0.33 | [4] -0.063 | [5] -0.034 | [12] 0.071 | [6] -0.046 | [19] -0.287 | [7] -0.209 | [14] 0.182 | [8] -0.086

VASN (UniProt Q6EMK4)
inactive: [1] 0.086 | [16] 0.03 | [2] 0.446 | [3] -0.083 | [6] 0.479 | [19] 0.07 | [7] -0.225

UHRF1 isoform 2 (UniProt Q96T88)
inactive: [1] 0.105 | [2] 0.004 | [4] -0.034 | [5] 0.096 | [7] -0.191 | [8] -0.28

USP4 (UniProt Q13107)
inactive: [12] -0.314 | [14] 0.611

UPF3A (UniProt Q9H1J1)
inactive: [1] -0.02 | [16] -0.02 | [2] 0.007 | [12] -0.155 | [19] 0.12 | [7] 0.115 | [14] 0.199

ULK3 isoform 4 (UniProt Q6PHR2)
inactive: [16] -0.015 | [3] 0.085 | [17] -0.072 | [12] -0.024 | [6] -0.037 | [18] 0.016 | [19] -0.167 | [20] 0.09 | [14] 0.129

UTP20 (UniProt O75691)
inactive: [1] -0.082 | [16] 0.053 | [2] -0.321 | [4] 0.061 | [5] 0.04 | [19] -0.172 | [7] 0.081 | [8] 0

UNC13A (UniProt Q9UPW8)
inactive: [1] -0.021 | [2] 0.062 | [3] -0.016 | [4] 0.064 | [5] 0.077 | [6] 0.01 | [7] 0.021 | [8] 0.035

UBIAD1 (UniProt Q9Y5Z9)
inactive: [1] 0.101 | [9] -0.052 | [2] 0.04 | [10] 0.194 | [3] -0.036 | [17] 0.259 | [4] 0 | [5] 0.094 | [12] 0.012 | [6] -0.009 | [13] -0.055 | [18] -0.032 | [7] -0.069 | [20] 0.029 | [14] -0.104 | [8] 0.047
active: [11] 0.297

USP33 (UniProt Q8TEY7)
inactive: [1] 0.143 | [9] -0.132 | [2] -0.111 | [10] -0.352 | [17] 0.065 | [11] 0.078 | [4] 0.027 | [5] 0.034 | [13] 0.063 | [18] -0.031 | [7] -0.133 | [20] 0.024 | [8] -0.027
